No constants are given. Whether binding was seen depends on the method and setting. In cells and extracts the contact can be indirect. These calls come from enrichment with a bait or labelling near it, and not all partners need be listed.

For the assay, the target named is IL-33Δ34–miniTurbo fusion construct (human). In words: proximity labelling; miniTurbo fusions in HBE-1 cells, 500 µM biotin for 2 hours, streptavidin magnetic beads; labelled proteins identified by mass spectrometry proteomics (replicates 1-3).

B1: CCT complex subunit CCT2 (protein, UniProt P78371 1-535)
chain: MASLSLAPVNIFKAGADEERAETARLTSFIGAIAIGDLVKSTLGPKGMDKILLSSGRDASLMVTNDGATILKNIGVDNPAAKVLVDMSRVQDDEVGDGTTSVTVLAAELLREAESLIAKKIHPQTIIAGWREATKAAREALLSSAVDHGSDEVKFRQDLMNIAGTTLSSKLLTHHKDHFTKLAVEAVLRLKGSGNLEAIHIIKKLGGSLADSYLDEGFLLDKKIGVNQPKRIENAKILIANTGMDTDKIKIFGSRVRVDSTAKVAEIEHAEKEKMKEKVERILKHGINCFINRQLIYNYPEQLFGAAGVMAIEHADFAGVERLALVTGGEIASTFDHPELVKLGSCKLIEEVMIGEDKLIHFSGVALGEACTIVLRGATQQILDEAERSLHDALCVLAQTVKDSRTVYGGGCSEMLMAHAVTQLANRTPGKEAVAMESYAKALRMLPTIIADNAGYDSADLVAQLRAAHSEGNTTAGLDMREGTIGDMAILGITESFQVKRQVLLSAAEAAEVILRVDNIIKAAPRKRVPDHHPC
As for B1, the binding result is given as “binds”.

Source of the values: article PMC12333954.
